The record followed here is article PMC9449696.

Results are given in words; binding and its absence hold for the method and conditions named. In cells and extracts the contact can be indirect. A yes stands for co-enrichment or nearness to the bait. Other partners may have been found. Where a sequence is shown, tags or fusion partners need not be part of it.

The target of this assay is T1, GST-Spastin (UniProt B2RYN7).
T1 sequence: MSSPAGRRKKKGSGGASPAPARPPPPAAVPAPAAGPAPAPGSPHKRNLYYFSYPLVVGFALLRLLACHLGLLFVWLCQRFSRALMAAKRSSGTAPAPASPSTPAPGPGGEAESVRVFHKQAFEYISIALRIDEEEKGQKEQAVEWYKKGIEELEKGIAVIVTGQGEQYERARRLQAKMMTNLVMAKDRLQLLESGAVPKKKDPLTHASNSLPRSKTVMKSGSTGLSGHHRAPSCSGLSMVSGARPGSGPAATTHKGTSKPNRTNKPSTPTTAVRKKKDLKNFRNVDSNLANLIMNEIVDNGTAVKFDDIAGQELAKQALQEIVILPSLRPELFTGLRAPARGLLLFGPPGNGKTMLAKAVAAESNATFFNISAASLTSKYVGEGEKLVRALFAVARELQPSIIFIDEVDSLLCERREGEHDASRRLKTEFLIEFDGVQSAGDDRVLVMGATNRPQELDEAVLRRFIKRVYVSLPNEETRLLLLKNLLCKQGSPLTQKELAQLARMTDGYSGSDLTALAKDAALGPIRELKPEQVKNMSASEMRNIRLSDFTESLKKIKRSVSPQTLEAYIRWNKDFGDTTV
Briefly: affinity purification with mass spectrometry; GST-Spastin on beads used to pull down proteins from rat spinal cord lysate; incubated overnight at 4°C; precipitated proteins resolved on a gel, digested with trypsin, LC-MS/MS; only the target purified.

B1: Protein disulfide isomerase A6 (PDIA6), endogenous (protein, UniProt Q63081 20-440)
chain: LYSSSDDVIELTPSNFNREVIQSDSLWLVEFYAPWCGHCQRLTPEWKKAASALKDVVKVGAVNADKHQSLGGQYGVQGFPTIKIFGANKNKPEDYQGGRTGEAIVDAALSALRQLVKDRLGGRSGGYSSGKQGRGDSSSKKDVVELTDDTFDKNVLDSEDVWMVEFYAPWCGHCKNLEPEWAAAATEVKEQTKGKVKLAAVDATVNQVLASRYGIKGFPTIKIFQKGESPVDYDGGRTRSDIVSRALDLFSDNAPPPELLEIINEDIAKKTCEEHQLCVVAVLPHILDTGATGRNSYLEVLLKLADKYKKKMWGWLWTEAGAQYELENALGIGGFGYPAMAAINARKMKFALLKGSFSEQGINEFLRELSFGRGSTAPVGGGSFPNITPREPWDGKDGELPVEDDIDLSDVELDDLEKDEL
In the case of B1, the binding result is recorded as “binds”.
